Results published in patent publication US9730935B2, “Targeting a non-canonical notch signaling pathway for cancer treatment” (The Board of Trustees of the Leland Stanford Junior …, priority 2013, dated 2017).
Results are given in words; binding and its absence hold for the method and conditions named. Binding seen in cells or lysates may run through a third protein. Some binding calls cover weakened binding; strength is not graded here.

The chains behind the UniProt entries cited, without tags or fusion partners. Residues count along the entry.
UniProt Q9BXM7, residues 78-581: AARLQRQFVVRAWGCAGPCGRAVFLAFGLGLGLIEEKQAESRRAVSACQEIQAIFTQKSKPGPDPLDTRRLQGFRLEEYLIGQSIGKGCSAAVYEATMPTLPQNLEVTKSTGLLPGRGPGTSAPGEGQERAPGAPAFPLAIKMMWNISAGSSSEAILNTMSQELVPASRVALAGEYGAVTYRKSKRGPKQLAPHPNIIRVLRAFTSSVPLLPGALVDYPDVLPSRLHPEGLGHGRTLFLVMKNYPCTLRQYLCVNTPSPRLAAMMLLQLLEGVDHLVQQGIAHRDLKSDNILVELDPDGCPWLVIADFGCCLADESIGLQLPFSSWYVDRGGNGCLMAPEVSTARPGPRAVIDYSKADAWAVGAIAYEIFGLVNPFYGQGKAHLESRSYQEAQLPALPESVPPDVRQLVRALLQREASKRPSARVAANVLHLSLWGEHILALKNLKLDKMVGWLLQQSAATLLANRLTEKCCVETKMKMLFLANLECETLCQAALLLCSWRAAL
UniProt P07207, residues 53-2703: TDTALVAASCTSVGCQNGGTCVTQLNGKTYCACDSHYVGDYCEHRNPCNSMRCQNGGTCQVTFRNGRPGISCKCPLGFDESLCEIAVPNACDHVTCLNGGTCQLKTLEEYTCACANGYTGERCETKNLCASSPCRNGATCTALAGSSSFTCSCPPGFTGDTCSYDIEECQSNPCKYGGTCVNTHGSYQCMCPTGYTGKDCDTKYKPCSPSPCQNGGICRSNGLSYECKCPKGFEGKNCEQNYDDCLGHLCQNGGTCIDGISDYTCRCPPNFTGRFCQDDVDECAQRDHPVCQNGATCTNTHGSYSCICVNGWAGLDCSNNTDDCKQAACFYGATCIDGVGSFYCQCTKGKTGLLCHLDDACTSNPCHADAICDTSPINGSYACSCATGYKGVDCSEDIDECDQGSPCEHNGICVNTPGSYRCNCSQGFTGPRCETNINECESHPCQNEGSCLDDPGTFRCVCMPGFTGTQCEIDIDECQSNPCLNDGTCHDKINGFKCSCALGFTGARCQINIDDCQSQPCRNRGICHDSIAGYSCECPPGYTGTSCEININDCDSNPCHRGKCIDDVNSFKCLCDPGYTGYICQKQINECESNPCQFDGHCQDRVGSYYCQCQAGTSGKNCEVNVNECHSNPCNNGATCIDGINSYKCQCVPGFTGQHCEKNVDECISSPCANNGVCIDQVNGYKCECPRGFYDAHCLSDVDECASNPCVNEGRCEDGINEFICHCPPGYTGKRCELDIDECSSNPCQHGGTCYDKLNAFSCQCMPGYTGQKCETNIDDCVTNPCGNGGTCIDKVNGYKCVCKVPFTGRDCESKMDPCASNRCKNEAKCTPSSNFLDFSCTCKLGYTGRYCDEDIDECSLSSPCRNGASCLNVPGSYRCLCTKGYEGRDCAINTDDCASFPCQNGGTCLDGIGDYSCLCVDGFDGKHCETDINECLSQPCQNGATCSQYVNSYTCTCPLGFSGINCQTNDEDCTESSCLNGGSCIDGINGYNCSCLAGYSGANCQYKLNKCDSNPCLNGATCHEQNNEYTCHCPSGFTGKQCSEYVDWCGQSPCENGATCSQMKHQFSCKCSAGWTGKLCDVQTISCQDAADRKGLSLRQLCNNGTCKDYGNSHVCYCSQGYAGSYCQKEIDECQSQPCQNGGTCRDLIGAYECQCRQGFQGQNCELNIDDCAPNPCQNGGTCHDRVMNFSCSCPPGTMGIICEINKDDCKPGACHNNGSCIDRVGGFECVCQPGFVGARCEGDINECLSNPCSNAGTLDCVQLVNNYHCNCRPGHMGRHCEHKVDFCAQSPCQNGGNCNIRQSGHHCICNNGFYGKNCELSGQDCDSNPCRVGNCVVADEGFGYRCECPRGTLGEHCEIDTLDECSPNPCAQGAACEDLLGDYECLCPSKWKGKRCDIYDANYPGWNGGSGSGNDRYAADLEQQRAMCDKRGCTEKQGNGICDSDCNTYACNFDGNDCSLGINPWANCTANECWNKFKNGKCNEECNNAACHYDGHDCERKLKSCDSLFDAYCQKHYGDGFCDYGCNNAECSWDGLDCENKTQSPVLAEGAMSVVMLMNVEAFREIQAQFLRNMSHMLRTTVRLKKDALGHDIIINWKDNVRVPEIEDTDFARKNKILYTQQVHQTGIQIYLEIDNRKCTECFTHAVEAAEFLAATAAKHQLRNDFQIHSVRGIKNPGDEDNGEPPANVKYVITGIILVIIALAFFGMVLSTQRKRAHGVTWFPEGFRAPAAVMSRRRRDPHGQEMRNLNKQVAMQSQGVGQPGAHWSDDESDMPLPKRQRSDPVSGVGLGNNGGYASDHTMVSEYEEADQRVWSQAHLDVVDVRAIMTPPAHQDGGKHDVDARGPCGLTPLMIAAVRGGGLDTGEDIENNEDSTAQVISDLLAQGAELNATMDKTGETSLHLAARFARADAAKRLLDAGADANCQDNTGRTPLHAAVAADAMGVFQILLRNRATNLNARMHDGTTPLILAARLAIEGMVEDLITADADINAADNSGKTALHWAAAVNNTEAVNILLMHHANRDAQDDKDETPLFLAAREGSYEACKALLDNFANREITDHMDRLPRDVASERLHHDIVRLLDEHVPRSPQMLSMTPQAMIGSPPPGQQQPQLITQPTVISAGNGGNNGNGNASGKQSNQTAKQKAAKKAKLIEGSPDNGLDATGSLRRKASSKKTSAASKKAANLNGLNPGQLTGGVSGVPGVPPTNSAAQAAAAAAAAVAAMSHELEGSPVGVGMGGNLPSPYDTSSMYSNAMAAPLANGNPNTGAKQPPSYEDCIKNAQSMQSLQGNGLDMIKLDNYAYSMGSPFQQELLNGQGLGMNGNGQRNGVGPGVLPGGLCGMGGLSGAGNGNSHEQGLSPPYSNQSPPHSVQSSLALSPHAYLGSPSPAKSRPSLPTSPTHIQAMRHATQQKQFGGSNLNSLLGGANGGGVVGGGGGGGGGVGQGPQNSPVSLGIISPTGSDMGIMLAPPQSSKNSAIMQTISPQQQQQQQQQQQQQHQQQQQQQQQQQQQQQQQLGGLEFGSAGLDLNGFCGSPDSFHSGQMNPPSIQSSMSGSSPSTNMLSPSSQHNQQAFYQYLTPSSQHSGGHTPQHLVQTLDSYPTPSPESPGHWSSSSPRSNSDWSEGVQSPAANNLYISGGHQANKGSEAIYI
UniProt P46531, residues 19-2555: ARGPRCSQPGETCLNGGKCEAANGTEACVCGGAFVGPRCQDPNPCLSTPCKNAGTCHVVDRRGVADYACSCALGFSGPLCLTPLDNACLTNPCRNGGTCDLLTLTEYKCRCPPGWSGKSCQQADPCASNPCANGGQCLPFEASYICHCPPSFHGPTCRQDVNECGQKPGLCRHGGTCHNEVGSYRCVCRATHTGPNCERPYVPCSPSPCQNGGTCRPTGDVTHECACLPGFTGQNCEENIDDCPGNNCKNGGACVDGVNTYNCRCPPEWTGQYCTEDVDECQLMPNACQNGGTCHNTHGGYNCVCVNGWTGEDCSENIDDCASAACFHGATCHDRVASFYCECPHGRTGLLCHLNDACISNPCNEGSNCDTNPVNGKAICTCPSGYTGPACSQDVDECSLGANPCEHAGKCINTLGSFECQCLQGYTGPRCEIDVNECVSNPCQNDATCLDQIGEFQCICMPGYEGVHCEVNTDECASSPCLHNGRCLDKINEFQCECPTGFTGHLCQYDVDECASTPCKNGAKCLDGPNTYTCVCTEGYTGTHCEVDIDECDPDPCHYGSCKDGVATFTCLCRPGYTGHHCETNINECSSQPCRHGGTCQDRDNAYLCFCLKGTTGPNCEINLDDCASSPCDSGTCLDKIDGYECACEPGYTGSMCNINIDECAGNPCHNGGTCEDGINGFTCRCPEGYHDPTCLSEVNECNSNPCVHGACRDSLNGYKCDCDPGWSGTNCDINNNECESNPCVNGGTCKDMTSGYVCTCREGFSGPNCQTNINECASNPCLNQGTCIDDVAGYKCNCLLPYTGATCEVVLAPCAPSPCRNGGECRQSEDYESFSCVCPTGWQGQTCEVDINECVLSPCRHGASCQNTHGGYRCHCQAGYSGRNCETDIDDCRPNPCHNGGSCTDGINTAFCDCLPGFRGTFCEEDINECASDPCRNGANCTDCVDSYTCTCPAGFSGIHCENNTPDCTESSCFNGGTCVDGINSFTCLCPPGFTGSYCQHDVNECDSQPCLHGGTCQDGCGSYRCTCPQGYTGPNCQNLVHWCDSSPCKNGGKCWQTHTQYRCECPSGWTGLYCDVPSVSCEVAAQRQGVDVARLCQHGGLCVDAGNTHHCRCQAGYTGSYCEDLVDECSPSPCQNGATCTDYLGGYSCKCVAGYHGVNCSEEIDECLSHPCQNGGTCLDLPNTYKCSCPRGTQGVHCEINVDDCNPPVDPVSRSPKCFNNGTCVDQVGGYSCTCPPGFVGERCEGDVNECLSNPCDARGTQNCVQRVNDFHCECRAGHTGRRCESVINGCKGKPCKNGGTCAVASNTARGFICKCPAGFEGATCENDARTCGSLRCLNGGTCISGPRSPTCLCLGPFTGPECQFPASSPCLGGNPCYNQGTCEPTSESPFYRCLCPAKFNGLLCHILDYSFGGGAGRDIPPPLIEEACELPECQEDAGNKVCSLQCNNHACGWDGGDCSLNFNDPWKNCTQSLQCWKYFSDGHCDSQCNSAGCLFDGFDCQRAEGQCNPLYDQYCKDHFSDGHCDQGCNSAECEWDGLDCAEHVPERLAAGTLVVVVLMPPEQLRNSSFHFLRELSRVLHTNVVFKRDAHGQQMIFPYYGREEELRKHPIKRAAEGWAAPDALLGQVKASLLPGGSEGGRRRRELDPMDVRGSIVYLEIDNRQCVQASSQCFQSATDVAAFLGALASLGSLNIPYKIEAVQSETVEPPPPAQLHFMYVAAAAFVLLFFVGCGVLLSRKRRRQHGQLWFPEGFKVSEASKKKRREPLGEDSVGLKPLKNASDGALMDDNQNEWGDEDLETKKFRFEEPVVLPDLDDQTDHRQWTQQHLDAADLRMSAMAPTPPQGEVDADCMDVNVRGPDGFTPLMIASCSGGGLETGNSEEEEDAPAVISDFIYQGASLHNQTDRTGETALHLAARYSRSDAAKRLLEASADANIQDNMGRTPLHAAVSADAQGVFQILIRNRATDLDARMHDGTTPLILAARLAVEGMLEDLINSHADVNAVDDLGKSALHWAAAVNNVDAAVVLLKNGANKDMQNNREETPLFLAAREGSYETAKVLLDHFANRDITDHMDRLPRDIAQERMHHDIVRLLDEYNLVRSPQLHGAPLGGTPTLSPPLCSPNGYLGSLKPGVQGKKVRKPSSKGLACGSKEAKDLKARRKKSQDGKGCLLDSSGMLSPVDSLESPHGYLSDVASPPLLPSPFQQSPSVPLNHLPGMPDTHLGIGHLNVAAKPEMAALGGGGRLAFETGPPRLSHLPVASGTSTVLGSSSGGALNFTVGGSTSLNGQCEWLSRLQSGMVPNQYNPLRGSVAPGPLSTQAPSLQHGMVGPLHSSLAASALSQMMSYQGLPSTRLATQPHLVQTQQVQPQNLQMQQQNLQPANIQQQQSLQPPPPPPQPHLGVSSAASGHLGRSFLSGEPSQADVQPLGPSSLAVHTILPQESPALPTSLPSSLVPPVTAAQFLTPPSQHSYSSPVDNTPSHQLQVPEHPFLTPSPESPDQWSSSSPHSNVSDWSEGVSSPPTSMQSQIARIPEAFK

Key:
[1] = target: T1, Drosophila PTEN-induced kinase 1 (dPINK1) (Drosophila) (UniProt Q0KHV6); experiment: co-immunoprecipitation, western blot (FIG. 3J, NiGFP fly tissue)
T1 sequence (looked up): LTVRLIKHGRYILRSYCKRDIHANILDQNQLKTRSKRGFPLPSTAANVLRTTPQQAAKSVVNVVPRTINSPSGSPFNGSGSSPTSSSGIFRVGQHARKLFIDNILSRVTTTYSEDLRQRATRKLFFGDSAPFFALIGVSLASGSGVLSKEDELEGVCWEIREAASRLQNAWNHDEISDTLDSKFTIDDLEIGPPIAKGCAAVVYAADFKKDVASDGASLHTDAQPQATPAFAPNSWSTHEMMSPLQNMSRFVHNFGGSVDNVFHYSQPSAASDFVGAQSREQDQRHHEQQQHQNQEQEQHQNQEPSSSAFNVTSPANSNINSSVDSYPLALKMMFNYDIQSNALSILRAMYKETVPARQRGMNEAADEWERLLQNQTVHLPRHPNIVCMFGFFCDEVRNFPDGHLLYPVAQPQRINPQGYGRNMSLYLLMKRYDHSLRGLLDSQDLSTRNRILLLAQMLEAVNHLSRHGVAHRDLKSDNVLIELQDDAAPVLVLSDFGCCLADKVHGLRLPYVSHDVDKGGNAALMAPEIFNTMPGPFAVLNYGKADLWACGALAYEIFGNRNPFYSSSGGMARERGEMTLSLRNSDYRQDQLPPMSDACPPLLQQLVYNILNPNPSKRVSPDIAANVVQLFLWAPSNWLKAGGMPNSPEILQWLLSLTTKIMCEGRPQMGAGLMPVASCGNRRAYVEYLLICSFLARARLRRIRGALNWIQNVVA

[2] = target: T1, Drosophila PTEN-induced kinase 1 (dPINK1) (Drosophila); experiment: co-immunoprecipitation with anti-GFP beads, western blot (FIG. 3J)
[3] = target: human PTEN-induced putative kinase 1 (PINK1) (human) (UniProt Q9BXM7); experiment: co-immunoprecipitation with anti-human PINK1 from mitochondrial extracts, western blot (FIG. 3K)
[4] = target: human PTEN-induced putative kinase 1 (PINK1) (human) (UniProt Q9BXM7); experiment: co-immunoprecipitation with anti-human PINK1 from mitochondrial extracts, western blot
[5] = target: T1, Drosophila PTEN-induced kinase 1 (dPINK1) (Drosophila); experiment: co-immunoprecipitation, western blot (FIG. 13C, fly muscle extracts)
[6] = target: T1, Drosophila PTEN-induced kinase 1 (dPINK1) (Drosophila); experiment: co-immunoprecipitation, western blot (FIG. 13C)

GFP-tagged Notch (NiGFP) expressed from the endogenous N locus, Drosophila (from UniProt P07207 53-2703) (receptor)
binding [1]: binds | binding [2]: binds

human Notch1 (hNotch1) (from UniProt P46531 19-2555) (receptor)
binding [3]: binds | binding [4]: binds

overexpressed N (Mhc-Gal4 driven) in fly muscle extracts, Drosophila (from UniProt P07207 53-2703) (receptor)
binding [5]: binds | binding [6]: binds
